Our source for the binding values is patent US20240317859A1.

The chains behind the UniProt entries cited, without tags or fusion partners. Where a name states a change or a piece, a line headed by the entry shows the natural chain unless it says otherwise.
UniProt Q15116: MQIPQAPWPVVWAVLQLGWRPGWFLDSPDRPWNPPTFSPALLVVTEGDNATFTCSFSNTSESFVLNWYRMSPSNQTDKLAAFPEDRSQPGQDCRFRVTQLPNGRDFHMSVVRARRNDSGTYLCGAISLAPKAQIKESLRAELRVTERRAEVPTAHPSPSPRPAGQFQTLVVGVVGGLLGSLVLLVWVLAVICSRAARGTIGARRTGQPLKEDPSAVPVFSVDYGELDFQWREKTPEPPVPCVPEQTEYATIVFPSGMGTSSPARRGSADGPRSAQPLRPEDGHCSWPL

No constants are given. Whether binding was seen depends on the method and setting. Some results given as binding are weak or reduced against the parent protein; the word gives no strength.

In assay [1] the target is human PD-1 (wild-type), expressed on cells (human) (UniProt Q15116). As to the kind of experiment: flow cytometry on PD-1-expressing cells.
Assay [2] concerns the target substituted human PD-1, domain #1 replaced with the corresponding amino acid sequence of mouse PD-1 (human; mouse) (UniProt Q15116). As to the kind of experiment: flow cytometry on cells expressing substituted human PD-1.

B1: HM698 (antibody, V domains shown)
VH: EVLLQQSGPELVKPGASVKIPCKASGYTFTDYNMDWVKQSHGKSLEWIGDIDPNNGGTVYNQKFKGKASLTVDKSSSTAYMELRSLTSEDTAVYYCARWRSAMDYWGQGTSVTVSS
VL: DIQMTQTTSSLSASLGDRVTISCRASQDISNYLNWYQQKPDGTVKLLIYYTSRLHSGVPSRFSGSGSGTDYSLTISNLEQEDIATYFCQQYNTLPWTFGGGTKLEIKR
B1: the binding entry in assay [1] and in assay [2] was “binds” in each case.

B2: HM624 (antibody, V domains shown)
VH: EVLLQQSGPELVQPGTSVKIFCKASGYTFTDYNIDWVKQSHGKSHEWIGDIDPNNGGTVYNQKFKGKATLTVDKSSTTAYMELRSLTSEDTAVYYCTRWRGAMDYWGRGTSVTVSS
VL: DIQMTQTTSSLSASLGDRVTISCRASQDVSNYLNWYQQKPDGTVKLLIYDTSKLHSGVPSRFSGSGSGTDYSLTIRDPDQEDIATYFCQQGHTLPWTFGGGTKLEIRR
Consider B2, for which, in assay [1], the binding result is “binds”.

B3: HM647 (antibody, V domains shown)
VH: EVLLQQSGPELVKPGASVKITCKASGYTFTDYNMDWVKQSHGKSLEWIGDIDPNNGGTVYNQKFKDKASLTVDKSSSTGYMELRSLTSEDTAVYYCARWRSAMDYWGQGTSVTVSS
VL: DIQMTQPTSSLSASLGDRVTISCRASQDISNYLNWYQQKPDGTVKLLISYTSRLHSGVPSRFSGSGSGTDYSLTISNLEQVDIATYFCQQYSTLPWTFGGGSKLEIKR
As to B3, the binding result in assay [1] and in assay [2] was “binds” in each case.
